PMC12679992
Results are given in words; binding and its absence hold for the method and conditions named. Binding can be weak; no strength is given. Tags and fused reporters may be left off the sequences shown.

The chains behind the UniProt entries cited, without tags or fusion partners. Where a name states a change or a piece, a line headed by the entry shows the natural chain unless it says otherwise.
UniProt P21860: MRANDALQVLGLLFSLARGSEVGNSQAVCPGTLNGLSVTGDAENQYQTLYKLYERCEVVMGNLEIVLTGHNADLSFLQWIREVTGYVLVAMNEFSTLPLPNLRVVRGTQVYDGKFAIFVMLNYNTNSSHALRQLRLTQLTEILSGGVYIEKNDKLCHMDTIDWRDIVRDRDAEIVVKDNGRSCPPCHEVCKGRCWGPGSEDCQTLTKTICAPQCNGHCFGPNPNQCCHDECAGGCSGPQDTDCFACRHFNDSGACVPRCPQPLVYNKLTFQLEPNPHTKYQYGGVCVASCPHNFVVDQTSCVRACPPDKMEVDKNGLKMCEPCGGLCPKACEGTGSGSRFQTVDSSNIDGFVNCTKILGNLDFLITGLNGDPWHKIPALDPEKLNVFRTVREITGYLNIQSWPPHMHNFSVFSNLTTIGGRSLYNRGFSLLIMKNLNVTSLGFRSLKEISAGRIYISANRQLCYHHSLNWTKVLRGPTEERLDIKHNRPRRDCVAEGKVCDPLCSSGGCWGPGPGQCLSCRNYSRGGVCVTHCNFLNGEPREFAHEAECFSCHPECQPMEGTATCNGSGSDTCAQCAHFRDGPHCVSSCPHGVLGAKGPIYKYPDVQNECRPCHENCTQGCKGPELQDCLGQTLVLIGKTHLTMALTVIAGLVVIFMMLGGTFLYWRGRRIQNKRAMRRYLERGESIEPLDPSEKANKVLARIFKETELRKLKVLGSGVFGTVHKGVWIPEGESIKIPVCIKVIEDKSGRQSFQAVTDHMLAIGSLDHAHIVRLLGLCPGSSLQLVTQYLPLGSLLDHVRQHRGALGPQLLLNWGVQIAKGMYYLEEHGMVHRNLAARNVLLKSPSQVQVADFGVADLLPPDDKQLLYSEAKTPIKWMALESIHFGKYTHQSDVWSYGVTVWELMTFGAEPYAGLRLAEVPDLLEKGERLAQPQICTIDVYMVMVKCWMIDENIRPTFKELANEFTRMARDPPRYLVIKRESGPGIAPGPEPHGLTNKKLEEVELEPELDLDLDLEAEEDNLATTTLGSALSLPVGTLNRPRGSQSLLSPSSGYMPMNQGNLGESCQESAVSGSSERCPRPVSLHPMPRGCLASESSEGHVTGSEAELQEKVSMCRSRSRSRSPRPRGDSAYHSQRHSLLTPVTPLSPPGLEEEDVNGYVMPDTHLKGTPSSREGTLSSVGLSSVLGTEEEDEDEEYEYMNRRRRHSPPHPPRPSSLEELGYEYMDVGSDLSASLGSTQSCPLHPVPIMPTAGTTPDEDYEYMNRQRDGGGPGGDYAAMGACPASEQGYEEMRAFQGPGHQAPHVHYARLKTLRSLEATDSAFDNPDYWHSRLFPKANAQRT

Target: recombinant ErbB3 (UniProt P21860)
Assay: pull-down; in vitro binding: 1 µg/ml recombinant ErbB3 with 1 µg/ml recombinant Rabaptin5 in 50 mM Tris pH 7.5, 150 mM NaCl, 1% NP-40, 0.5% sodium deoxycholate, 0.1% SDS, 1 mM EDTA, overnight at 4°C; ErbB3 immunoprecipitated, bound Rabaptin5 detected by blot; both purified

binding: binds
B1: recombinant MBP-Rabaptin5 (protein, UniProt Q15276 1-862)
chain: MAQPGPASQPDVSLQQRVAELEKINAEFLRAQQQLEQEFNQKRAKFKELYLAKEEDLKRQNAVLQAAQDDLGHLRTQLWEAQAEMENIKAIATVSENTKQEAIDEVKRQWREEVASLQAVMKETVRDYEHQFHLRLEQERTQWAQYRESAEREIADLRRRLSEGQEEENLENEMKKAQEDAEKLRSVVMPMEKEIAALKDKLTEAEDKIKELEASKVKELNHYLEAEKSCRTDLEMYVAVLNTQKSVLQEDAEKLRKELHEVCHLLEQERQQHNQLKHTWQKANDQFLESQRLLMRDMQRMEIVLTSEQLRQVEELKKKDQEDDEQQRLNKRKDHKKADVEEEIKIPVVCALTQEESSAQLSNEEEHLDSTRGSVHSLDAGLLLPSGDPFSKSDNDMFKDGLRRAQSTDSLGTSGSLQSKALGYNYKAKSAGNLDESDFGPLVGADSVSENFDTASLGSLQMPSGFMLTKDQERAIKAMTPEQEETASLLSSVTQGMESAYVSPSGYRLVSETEWNLLQKEVHNAGNKLGRRCDMCSNYEKQLQGIQIQEAETRDQVKKLQLMLRQANDQLEKTMKDKQELEDFIKQSSEDSSHQISALVLRAQASEILLEELQQGLSQAKRDVQEQMAVLMQSREQVSEELVRLQKDNDSLQGKHSLHVSLQQAEDFILPDTTEALRELVLKYREDIINVRTAADHVEEKLKAEILFLKEQIQAEQCLKENLEETLQLEIENCKEEIASISSLKAELERIKVEKGQLESTLREKSQQLESLQEIKISLEEQLKKETAAKATVEQLMFEEKNKAQRLQTELDVSEQVQRDFVKLSQTLQVQLERIRQADSLERIRAILNDTKLTDINQLPET
